Measurements taken from publication PMC9122598, “NASP maintains histone H3–H4 homeostasis through two distinct H3 binding modes” (Nucleic Acids Research, 2022).
No constants are given. Whether binding was seen depends on the method and setting. For some of these results: In cells and extracts the contact can be indirect. Some binding calls cover weakened binding; strength is not graded here. Each block holds one substance with its values, some of them ahead of it.

Chains of the proteins cited; added tags and fusions are not shown.
UniProt Q9NVP2: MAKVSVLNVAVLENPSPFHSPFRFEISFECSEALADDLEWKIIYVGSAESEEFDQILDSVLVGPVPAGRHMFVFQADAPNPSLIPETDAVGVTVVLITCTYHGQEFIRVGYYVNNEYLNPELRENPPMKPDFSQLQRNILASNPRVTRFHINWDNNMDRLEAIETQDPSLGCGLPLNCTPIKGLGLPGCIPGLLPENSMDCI
UniProt O14929: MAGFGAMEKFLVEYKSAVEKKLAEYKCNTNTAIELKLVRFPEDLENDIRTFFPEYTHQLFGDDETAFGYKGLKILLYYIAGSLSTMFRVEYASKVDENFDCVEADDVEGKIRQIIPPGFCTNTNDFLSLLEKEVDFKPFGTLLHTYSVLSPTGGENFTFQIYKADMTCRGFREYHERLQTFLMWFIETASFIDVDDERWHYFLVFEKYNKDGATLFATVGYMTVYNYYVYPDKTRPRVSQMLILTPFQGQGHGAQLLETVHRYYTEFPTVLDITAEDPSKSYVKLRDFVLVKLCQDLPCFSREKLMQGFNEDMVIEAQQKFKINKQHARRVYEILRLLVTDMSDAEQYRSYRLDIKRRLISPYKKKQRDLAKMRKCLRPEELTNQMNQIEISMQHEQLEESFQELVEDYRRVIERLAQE

Legend:
[1] = target: sNASP-TwinStrep-HA E177A W180A D181A (human) (UniProt P49321); experiment: co-IP; sNASP-Strep-HA captured on MagStrep beads from soluble extracts of doxycycline-induced HeLa S3, washes 150 mM NaCl, biotin elution; western blot
[2] = target: budding yeast Hif1p (Saccharomyces cerevisiae) (UniProt Q12373); experiment: ITC; Hif1p titrated with the H3 αN or H3 α3 peptide; performed in the same way as for sNASP; both purified
[3] = target: sNASP-FLAG-Myc (wt) (human) (UniProt P49321); experiment: co-IP; sNASP-FLAG-Myc precipitated with anti-Flag M2 beads from soluble extracts (300 mM NaCl, 0.05% NP40) of transiently transfected HeLa S3, washes 150 mM NaCl; western blot
[4] = target: sNASPc 6E monomer (V265E I272E L282E V286E I300E L307E) (human) (UniProt P49321); experiment: SEC-MALS; single purified protein on Superdex 200 Increase 10/300 GL; 20 mM Tris pH 7.5, 0.5 M NaCl; room temperature; both purified
[5] = target: sNASPc V265E I272E L282E V286E I300E L307E (human) (UniProt P49321); experiment: SEC-MALS; purified monomer-peak fraction of sNASPc, and the 6E mutant, […], Superdex 200 Increase 10/300 GL, 20 mM Tris pH 7.5, 0.5 M NaCl, room temperature; both purified
[6] = target: sNASPc V265E I272E L282E V286E I300E L307E (human) (UniProt P49321); experiment: SEC; gel filtration at purification, HiLoad 16/600 Superdex 200, 20 mM Tris pH 7.5, 0.5 M NaCl; sNASPc peaks re-run on Superdex 200 Increase in 50 mM Tris pH 7.5, 0.2 M NaCl; both purified

- binding [1]: no binding
Substance: ASF1b (endogenous) (from UniProt Q9NVP2 1-202)

- binding [2]: no binding
Substance: H3 α3 (a.a. 116–135) peptide (from UniProt P84243 117-136)

- binding [1]: no binding
Substance: HAT1 (endogenous) (from UniProt O14929 1-419) (enzyme)

- binding [3]: binds
Substance: endogenous tNASP (from UniProt P49321-1 1-788)

Substance: sNASPc 6E monomer (V265E I272E L282E V286E I300E L307E) (from UniProt P49321-2 30-340) (domain or fragment)
- binding [4]: no binding (tested: 1.5 mg/mL, 100 μL injected)

- binding [5]: no binding (tested: 1.5 mg/mL)
- binding [6]: no binding
Substance: sNASPc V265E I272E L282E V286E I300E L307E (from UniProt P49321-2 30-340) (domain or fragment)
